{
  "source": "paper PMC9913320",
  "about": "(Cancers, 2023)",
  "assay": "peptide made by a vendor",
  "settings": "whole synthesis",
  "data": [
    {"substance": "HYNIC-ADH-1", "values": [
      {"measurement": "purity (crude or final not stated)", "value": 98.83, "unit": "%"}
    ]}
  ]
}
